Measured values from PMC9170038, “Crowdsourced RNA design discovers diverse, reversible, efficient, self-contained molecular switches”.
pKd: −log10 of the molar value. Protein sequences can lack the tags named with them.

Target: T1, MS2 coat protein, dlFG mutant del68-81insG (Escherichia phage MS2) (UniProt P03612)
T1 sequence (looked up, limits assumed): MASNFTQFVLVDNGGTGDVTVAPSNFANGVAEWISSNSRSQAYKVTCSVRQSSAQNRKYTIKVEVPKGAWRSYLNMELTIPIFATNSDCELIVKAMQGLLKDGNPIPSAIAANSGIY
Experiment: binding assay
Settings: 4 mM Mg2+, RNA-MaP array, 100 mM Tris-HCl pH 7.5, 80 mM KCl, 4 mM MgCl2, 0.1 mg/mL BSA, 1 mM DTT, 0.01 mg/mL yeast tRNA, 0.01% Tween-20, protein 1.5 nM to 3 uM, 37 C (Table S3), purified recombinant protein

[1] = no ligand, variant of MS2 control

Sequence	pKd (no ligand)	further results
AAAAUCACAUGAGGAUCACCCAUGUACCGAGUUAAGGCUACAUAGGAUAUGACAAGUAUAGCUUGUCAGAAGGGUGAGUCUCGC [Eterna 6149019 (Same State NG 3)]		pKd (FMN 200 uM): < 5.52
AACCAACAUGAGGAUCACCCAUGUUCUCAGACGUUUAGGUCACAGGAUAUUCGUGCUUGUGGGACGGAGAAGGGUGCCUCGCUG [Eterna 6149060 (Same State NG 3)]	< 5.52	
CACGGACGAGUGGAUCACCCUCGUAAUAACCGAGGACCGGUACGGCCGCCACUCGAAAACCGUGACCUGUACGAAAAGUGCAGGA [Eterna 7707630 (Same State - Tryptophan A)]		pKd [1]: < 5.52
CACGGACGAGUGGAUCACCCUUGUAAUAACCGAGGACCGGUACGGCCGCCACUCGAAAACCGUGACCUGUACGAAAAGUGCAGGA [Eterna 7707632 (Same State - Tryptophan A)]		pKd [1]: < 5.52
CAUGUCCUCACAGGAUAUGCUGGACUUUGUCCAGCAGAAGGGUGAUAACAUGAGGAUCACCCAUGUGGACAUGAUAUAUUUAAU [Eterna 6130530 (Same State NG 1)]	< 5.52	
GUAUGAGCGAUAGGAUAUACUGAGAUUGAAUGGGUAGAAGGAUCUCUUGUGAGGAAGACAUGAGGAUCACCCAUGUCACGGGCC [Eterna 6123862 (Same State NG 1)]	< 5.52	
GUGGUUCUCGUAGGAUAUGUAGGAUAUGCCUACAUGAGGAUCACCCAUGUUCGCAUGGCAGAAGGACAGAAGGACGAUCACCAG [Eterna 6153683 (Same State NG 2)]	< 5.52	
UAGACACUUACAGGAUAUAGGGCAGAGGGUGCCCUAGAAGGGUGAACAUGAGGAUCACCCAUGUAUGUGUCUGAUUAGAAGGCA [Eterna 6148599 (Same State NG 1)]		pKd (FMN 200 uM): < 5.52
UCGUAUACACAAGGAUAUCGAUGGCUUGUAGAUGCUACAUGAGGAUCACCCAUGUUUUUAUAUUGUGAGAAGGUGUAGUGUCGU [Eterna 6124273 (Same State NG 2)]	< 5.52	
UCGUUUUAGUCGGCCGCCACUGAACUCAUGUUCAACAUGAGGAUCACCCAUGUACCUUAUUUUAACAGGACCGGGACGUAAUAGA [Eterna 7612119 (Exclusion - Tryptophan B)]		pKd (L-tryptophan 2.4 mM): < 5.52
